Whole data set: some 2,300 compounds, median “plate-normalized OD600 growth (mean of duplicates)” near 0.29, cut for the lowest 2% near 0.22. This is one part of the list.
Test system: Escherichia coli BW25113
Experiment: plate-normalized OD600 growth (mean of duplicates) (OD600 (normalized)); higher = more growth (less inhibition)
Conditions: 10 µM
Procedure: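 E. coli BW25113 in LB (100 µl, 96-well, no shaking) was exposed to 10 µM of each compound from a ~30,000-member library and grown at 37°C for 24 h or 15°C for 48 h, in duplicate. Growth was read as OD600 and the duplicate ODs were normalized across screening plates to correct plate-to-plate variation. Hits were >3σ below the mean OD600 at 15°C and <2σ below the mean at 37°C.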

SMILES | plate-normalized OD600 growth (temperature: 15°C, 48 h) | plate-normalized OD600 growth (temperature: 37°C, 24 h)
O=C(O)CCCC(=O)Nc1ccccn1 | 0.247 | 0.614
CCCCCSN1C(=O)c2ccccc2C1=O | 0.262 | 0.637
c1ccc([S+]2c3ccccc3Nc3ccccc32)cc1 | 0.237 | 0.612
C=CCn1cc(Cc2cn(CC=C)nc2C)c(C)n1 | 0.248 | 0.616
COc1ccc(OC)c(CNC(=O)Cc2cccs2)c1 | 0.247 | 0.616
COc1c(N)cccc1F | 0.244 | 0.627
Cc1cc(C)c(C(=O)CSc2nc3ccccc3[nH]2)c(C)c1 | 0.213 | 0.626
N#Cc1cc(C#N)c(SCC(=O)N(c2ccccc2)c2ccccc2)nc1N | 0.243 | 0.615
N/C(=N\OC(=O)C12CC3CC(CC(C3)C1)C2)c1ccccc1 | 0.26 | 0.614
O=[N+]([O-])c1ccc(SC2=NCCN2)c(Cl)c1 | 0.249 | 0.607
O=C1CC(NCc2ccco2)C(=O)N1c1ccc(OC(F)(F)Cl)cc1 (stereo unspecified) | 0.268 | 0.642
Cc1ccc(Sc2c(-c3ccccc3)nc3ncccn23)cc1 | 0.254 | 0.647
O=C1c2ccccc2C(=O)c2c(NCCc3ccc(O)cc3)ccc(NCCc3ccc(O)cc3)c21 | 0.24 | 0.646
CN(C)c1ccc(/C=C2\SC(=S)N(CC(=O)O)C2=O)cc1Br | 0.259 | 0.613
COCc1cc(C)nc2sc(C(=O)OC)c(N)c12 | 0.243 | 0.626
CC(Oc1ccccc1)C(=O)Nc1ccc(Cl)cc1 (stereo unspecified) | 0.222 | 0.64
CN1C(=O)N(C)C2(c3ccccc3)Nn3c(s/c(=C/c4ccc([N+](=O)[O-])cc4)c3=O)=NC12c1ccccc1 (stereo unspecified) | 0.243 | 0.609
Cc1cccc(C(=O)OCC(=O)c2ccccc2)c1O | 0.25 | 0.611
Cc1ccc(NS(=O)(=O)c2ccc(N3C(=O)c4ccccc4C3=O)cc2)cc1C | 0.25 | 0.629
FC(F)(F)c1cccc(CSc2n[nH]c(=S)s2)c1 | 0.256 | 0.622
N#CCCN(CC1CCCO1)C(=S)Nc1cc(C(F)(F)F)cc(C(F)(F)F)c1 (stereo unspecified) | 0.24 | 0.629
Cc1ccccc1COC(=O)c1ccc(-c2nnn(Cc3ccccc3C)n2)cc1 | 0.244 | 0.611
CCc1c(C)nn2cn[n+](Cc3ccccc3)c2c1[O-] | 0.268 | 0.629
COc1cccc(Nc2ncnc3scc(-c4ccc(Cl)cc4)c23)c1 | 0.229 | 0.625
N/C(=N\OC(=O)c1ccno1)c1ccc(C(F)(F)F)cc1 | 0.253 | 0.612
O=C1CSC(c2ccc(C(F)(F)F)cc2)N1c1ccc(S(=O)(=O)Nc2ncccn2)cc1 (stereo unspecified) | 0.253 | 0.638
N/C(=N/OC(=O)C(Cl)Cl)c1cccc(Cl)c1Cl | 0.233 | 0.601
O=c1[nH]c(=O)n(C2OC(CO)C(O)C2O)cc1F (stereo unspecified) | 0.243 | 0.618

Filtered by structure: those above with two or more sulfur atoms (3)
SMILES | plate-normalized OD600 growth (temperature: 15°C, 48 h) | plate-normalized OD600 growth (temperature: 37°C, 24 h)
CN(C)c1ccc(/C=C2\SC(=S)N(CC(=O)O)C2=O)cc1Br | 0.259 | 0.613
FC(F)(F)c1cccc(CSc2n[nH]c(=S)s2)c1 | 0.256 | 0.622
O=C1CSC(c2ccc(C(F)(F)F)cc2)N1c1ccc(S(=O)(=O)Nc2ncccn2)cc1 (stereo unspecified) | 0.253 | 0.638

— the supplement of paper PMC4371806
